In the supplement of paper PMC8728848:
The list shows a part of the results.

How the values were obtained:
Assay in all cases: glycan array binding signal (z-score within array); higher = stronger binding
Conditions in all cases: glycan notation: IUPAC condensed, linker removed
[1] = target: Neu5Ac(a2-3)Gal6S(b1-4)[Fuc(a1-3)]GlcNAc
Summary of the method: (§1)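 Glycan array binding is given as a within-array Z-score, which can be read as non-binding when negative. The arrays, 3228 of them, came from the Consortium for Functional Glycomics database and were retained only where the protein sequence was available. Z-scores were averaged across arrays of the same protein sequence at different concentrations or buffers and across linkers.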

[2] = target: Neu5Ac(a2-3)GalNAc
Summary of the method: as §1

[3] = target: Neu5Ac(a2-3)GalNAc(b1-4)GlcNAc
Summary of the method: as §1

[4] = target: Neu5Ac(a2-3)[GalNAc(b1-4)]Gal(b1-4)Glc
Summary of the method: as §1

[5] = target: Neu5Ac(a2-3)[GalNAc(b1-4)]Gal(b1-4)GlcNAc
Summary of the method: as §1

[6] = target: Neu5Ac(a2-3)[GalNAc(b1-4)]Gal(b1-4)GlcNAc(b1-3)GalNAc
Summary of the method: as §1

[7] = target: Neu5Ac(a2-3)[Neu5Ac(a2-6)]GalNAc
Summary of the method: as §1

[8] = target: Neu5Ac(a2-6)Gal
Summary of the method: as §1

[9] = target: Neu5Ac(a2-6)Gal(b1-3)GlcNAc(b1-3)[Gal(b1-4)GlcNAc(b1-6)]Gal(b1-4)Glc
Summary of the method: as §1

[10] = target: Neu5Ac(a2-6)Gal(b1-4)Glc
Summary of the method: as §1

[11] = target: Neu5Ac(a2-6)Gal(b1-4)GlcNAc
Summary of the method: as §1

[12] = target: Neu5Ac(a2-6)Gal(b1-4)GlcNAc(b1-2)Man
Summary of the method: as §1

[13] = target: Neu5Ac(a2-6)Gal(b1-4)GlcNAc(b1-2)Man(a1-3)Man(b1-4)GlcNAc(b1-4)GlcNAc
Summary of the method: as §1

[14] = target: Neu5Ac(a2-6)Gal(b1-4)GlcNAc(b1-2)Man(a1-3)[Gal(b1-4)GlcNAc(b1-2)Man(a1-6)]Man(b1-4)GlcNAc(b1-4)GlcNAc
Summary of the method: as §1

[15] = target: Neu5Ac(a2-6)Gal(b1-4)GlcNAc(b1-2)Man(a1-3)[GlcNAc(b1-2)Man(a1-6)]Man(b1-4)GlcNAc(b1-4)GlcNAc
Summary of the method: as §1

[16] = target: Neu5Ac(a2-6)Gal(b1-4)GlcNAc(b1-2)Man(a1-3)[GlcNAc(b1-4)][Neu5Ac(a2-6)Gal(b1-4)GlcNAc(b1-2)Man(a1-6)]Man(b1-4)GlcNAc(b1-4)GlcNAc
Summary of the method: as §1

[17] = target: Neu5Ac(a2-6)Gal(b1-4)GlcNAc(b1-2)Man(a1-3)[Man(a1-6)]Man(b1-4)GlcNAc(b1-4)GlcNAc
Summary of the method: as §1

[18] = target: Neu5Ac(a2-6)Gal(b1-4)GlcNAc(b1-2)Man(a1-3)[Neu5Ac(a2-3)Gal(b1-4)GlcNAc(b1-2)Man(a1-6)]Man(b1-4)GlcNAc(b1-4)GlcNAc
Summary of the method: as §1

[19] = target: Neu5Ac(a2-6)Gal(b1-4)GlcNAc(b1-2)Man(a1-3)[Neu5Ac(a2-6)Gal(b1-4)GlcNAc(b1-2)Man(a1-6)]Man(b1-4)GlcNAc(b1-4)GlcNAc
Summary of the method: as §1

[20] = target: Neu5Ac(a2-6)Gal(b1-4)GlcNAc(b1-2)Man(a1-3)[Neu5Ac(a2-6)Gal(b1-4)GlcNAc(b1-2)Man(a1-6)]Man(b1-4)GlcNAc(b1-4)[Fuc(a1-6)]GlcNAc
Summary of the method: as §1

[21] = target: Neu5Ac(a2-6)Gal(b1-4)GlcNAc(b1-2)Man(a1-6)Man(b1-4)GlcNAc(b1-4)GlcNAc
Summary of the method: as §1

[22] = target: Neu5Ac(a2-6)Gal(b1-4)GlcNAc(b1-2)Man(a1-6)[Gal(b1-4)GlcNAc(b1-2)Man(a1-3)]Man(b1-4)GlcNAc(b1-4)GlcNAc
Summary of the method: as §1

[23] = target: Neu5Ac(a2-6)Gal(b1-4)GlcNAc(b1-2)Man(a1-6)[GlcNAc(b1-2)Man(a1-3)]Man(b1-4)GlcNAc(b1-4)GlcNAc
Summary of the method: as §1

[24] = target: Neu5Ac(a2-6)Gal(b1-4)GlcNAc(b1-2)Man(a1-6)[Man(a1-3)]Man(b1-4)GlcNAc(b1-4)GlcNAc
Summary of the method: as §1

[25] = target: Neu5Ac(a2-6)Gal(b1-4)GlcNAc(b1-2)[Neu5Ac(a2-6)Gal(b1-4)GlcNAc(b1-4)]Man(a1-3)[GlcNAc(b1-4)][Neu5Ac(a2-6)Gal(b1-4)GlcNAc(b1-2)[Neu5Ac(a2-6)Gal(b1-4)GlcNAc(b1-6)]Man(a1-6)]Man(b1-4)GlcNAc(b1-4)GlcNAc
Summary of the method: as §1

[26] = target: Neu5Ac(a2-6)Gal(b1-4)GlcNAc(b1-2)[Neu5Ac(a2-6)Gal(b1-4)GlcNAc(b1-4)]Man(a1-3)[GlcNAc(b1-4)][Neu5Ac(a2-6)Gal(b1-4)GlcNAc(b1-4)Man(a1-6)]Man(b1-4)GlcNAc(b1-4)GlcNAc
Summary of the method: as §1

[27] = target: Neu5Ac(a2-6)Gal(b1-4)GlcNAc(b1-2)[Neu5Ac(a2-6)Gal(b1-4)GlcNAc(b1-6)]Man(a1-6)[Neu5Ac(a2-6)Gal(b1-4)GlcNAc(b1-2)Man(a1-3)][GlcNAc(b1-4)]Man(b1-4)GlcNAc(b1-4)GlcNAc
Summary of the method: as §1

[28] = target: Neu5Ac(a2-6)Gal(b1-4)GlcNAc(b1-3)Gal(b1-3)GlcNAc
Summary of the method: as §1

[29] = target: Neu5Ac(a2-6)Gal(b1-4)GlcNAc(b1-3)Gal(b1-4)GlcNAc
Summary of the method: as §1

[30] = target: Neu5Ac(a2-6)Gal(b1-4)GlcNAc(b1-3)Gal(b1-4)GlcNAc(b1-2)Man(a1-3)[Neu5Ac(a2-6)Gal(b1-4)GlcNAc(b1-3)Gal(b1-4)GlcNAc(b1-2)Man(a1-6)]GalNAc
Summary of the method: as §1

[31] = target: Neu5Ac(a2-6)Gal(b1-4)GlcNAc(b1-3)Gal(b1-4)GlcNAc(b1-3)Gal(b1-4)GlcNAc
Summary of the method: as §1

[32] = target: Neu5Ac(a2-6)Gal(b1-4)GlcNAc(b1-3)Gal(b1-4)GlcNAc(b1-3)Gal(b1-4)GlcNAc(b1-2)Man(a1-3)[Neu5Ac(a2-6)Gal(b1-4)GlcNAc(b1-3)Gal(b1-4)GlcNAc(b1-3)Gal(b1-4)GlcNAc(b1-2)Man(a1-6)]GalNAc
Summary of the method: as §1

[33] = target: Neu5Ac(a2-6)Gal(b1-4)GlcNAc(b1-3)Gal(b1-4)GlcNAc(b1-3)GalNAc
Summary of the method: as §1

[34] = target: Neu5Ac(a2-6)Gal(b1-4)GlcNAc(b1-3)Gal(b1-4)GlcNAc(b1-3)[Neu5Ac(a2-6)Gal(b1-4)GlcNAc(b1-3)Gal(b1-4)GlcNAc(b1-6)]GalNAc
Summary of the method: as §1

[35] = target: Neu5Ac(a2-6)Gal(b1-4)GlcNAc(b1-3)Gal(b1-4)GlcNAc(b1-6)[Gal(b1-3)]GalNAc
Summary of the method: as §1

[36] = target: Neu5Ac(a2-6)Gal(b1-4)GlcNAc(b1-3)Gal(b1-4)[Fuc(a1-3)]GlcNAc(b1-3)Gal(b1-4)[Fuc(a1-3)]GlcNAc
Summary of the method: as §1

[37] = target: Neu5Ac(a2-6)Gal(b1-4)GlcNAc(b1-3)GalNAc
Summary of the method: as §1

[38] = target: Neu5Ac(a2-6)Gal(b1-4)GlcNAc(b1-3)[Neu5Ac(a2-6)Gal(b1-4)GlcNAc(b1-6)]GalNAc
Summary of the method: as §1

[39] = target: Neu5Ac(a2-6)Gal(b1-4)GlcNAc(b1-6)GalNAc
Summary of the method: as §1

[40] = target: Neu5Ac(a2-6)Gal(b1-4)GlcNAc(b1-6)[Gal(b1-3)GlcNAc(b1-3)]Gal(b1-4)Glc
Summary of the method: as §1

[41] = target: Neu5Ac(a2-6)Gal(b1-4)GlcNAc(b1-6)[Gal(b1-3)]GalNAc
Summary of the method: as §1

[42] = target: Neu5Ac(a2-6)Gal(b1-4)GlcNAc6S
Summary of the method: as §1

[43] = target: Neu5Ac(a2-6)GalNAc
Summary of the method: as §1

[44] = target: Neu5Ac(a2-6)GalNAc(b1-4)GlcNAc
Summary of the method: as §1

[45] = target: Neu5Ac(a2-6)GalNAc(b1-4)GlcNAc6S
Summary of the method: as §1

B1: SP15308C-bot-338-23-338 (Bacteroides ovatus) (protein)
chain: DEWTDEQFKQLISFKTQPGGWGVTDVHVRYANSAKYTYNLPVLVSGSTDNTDDRLVSFSLRDDTLDILNFEKFGNRPELYFRELPQKYYSFPKELTIPAGQSHALLPIEFSLDGLDDSQKWALPLKVCEDANGTYAVNPRKYYRTAVLRPILFNEFSGRFSGSSLLGTMAGESDIKFSSTEIKLNVVTDSIVFFYAGQRTEDYEDRINYKVFLQFTGDKVDSKKDLYKMKIWAENEKLKFNSYSTPTYKVSSEMDATKTYLKHTYIVISDIDFDFVDYTSVPNYEIEYNMKGGLSVSRDLDTRKPDEDQGSDSKWW
With B1 as the binder, how does the “glycan array binding signal (z-score)” value [1] read?
The value was -0.88.

What about the “glycan array binding signal (z-score)” value [2] of the same binder?
The value was -0.419.

And the “glycan array binding signal (z-score)” value [3]?
The value was -0.736.

And the “glycan array binding signal (z-score)” value [4]?
Its value is -0.825.

And the “glycan array binding signal (z-score)” value [5]?
The value was -0.753.

What about the “glycan array binding signal (z-score)” value [6] of the same binder?
Its value is -0.37.

And the “glycan array binding signal (z-score)” value [7]?
The value was 0.544.

What about the “glycan array binding signal (z-score)” value [8] of the same binder?
Its value is -0.443.

And the “glycan array binding signal (z-score)” value [9]?
Its value is -0.272.

And the “glycan array binding signal (z-score)” value [10]?
Its value is -0.562.

And the “glycan array binding signal (z-score)” value [11]?
The value was 0.375.

What about the “glycan array binding signal (z-score)” value [12] of the same binder?
The value was -0.153.

What about the “glycan array binding signal (z-score)” value [13] of the same binder?
Its value is 0.711.

And the “glycan array binding signal (z-score)” value [14]?
Its value is -0.616.

What about the “glycan array binding signal (z-score)” value [15] of the same binder?
Its value is -0.65.

What about the “glycan array binding signal (z-score)” value [16] of the same binder?
The value was 0.444.

And the “glycan array binding signal (z-score)” value [17]?
Its value is -0.065.

And the “glycan array binding signal (z-score)” value [18]?
The value was -0.387.

And the “glycan array binding signal (z-score)” value [19]?
Its value is -0.142.

What about the “glycan array binding signal (z-score)” value [20] of the same binder?
The value was 0.771.

What about the “glycan array binding signal (z-score)” value [21] of the same binder?
The value was -0.435.

What about the “glycan array binding signal (z-score)” value [22] of the same binder?
The value was 1.16.

And the “glycan array binding signal (z-score)” value [23]?
The value was -0.62.

What about the “glycan array binding signal (z-score)” value [24] of the same binder?
Its value is -0.528.

And the “glycan array binding signal (z-score)” value [25]?
Its value is -0.902.

And the “glycan array binding signal (z-score)” value [26]?
Its value is 0.594.

And the “glycan array binding signal (z-score)” value [27]?
The value was -0.283.

What about the “glycan array binding signal (z-score)” value [28] of the same binder?
Its value is -0.49.

And the “glycan array binding signal (z-score)” value [29]?
The value was -0.235.

And the “glycan array binding signal (z-score)” value [30]?
The value was 0.187.

What about the “glycan array binding signal (z-score)” value [31] of the same binder?
Its value is -0.343.

And the “glycan array binding signal (z-score)” value [32]?
The value was 2.46.

What about the “glycan array binding signal (z-score)” value [33] of the same binder?
The value was -0.198.

And the “glycan array binding signal (z-score)” value [34]?
The value was -0.165.

And the “glycan array binding signal (z-score)” value [35]?
The value was 0.553.

What about the “glycan array binding signal (z-score)” value [36] of the same binder?
The value was -0.639.

What about the “glycan array binding signal (z-score)” value [37] of the same binder?
Its value is 0.388.

What about the “glycan array binding signal (z-score)” value [38] of the same binder?
Its value is -0.102.

What about the “glycan array binding signal (z-score)” value [39] of the same binder?
The value was 0.47.

And the “glycan array binding signal (z-score)” value [40]?
Its value is -0.068.

What about the “glycan array binding signal (z-score)” value [41] of the same binder?
The value was 0.95.

What about the “glycan array binding signal (z-score)” value [42] of the same binder?
Its value is 0.467.

And the “glycan array binding signal (z-score)” value [43]?
Its value is -0.292.

And the “glycan array binding signal (z-score)” value [44]?
Its value is 0.259.

And the “glycan array binding signal (z-score)” value [45]?
Its value is 0.087.
